Test results: US20080095822A1, “Active Substance Delivery System Comprising A Hydrogel Atrix And Microcarriers” (UNIVERSITE DE LIEGE, priority 2004, published 2008)
For at least one compound, name, drawing or mass did not settle the structure.

Tests used:
[1] = for diffusion (rate) from the hydrogel matrix, LNG versus EST (in words): LNG 20 wt % in PCL MW 50,000, EST 5 wt % in PCL MW 10,000 microspheres, both in PHEMA hydrogel
[2] = preliminary diffusion of LNG through hydrogel including MMA comonomer; format: physicochemical; conditions: HEMA/MMA copolymer hydrogel; preliminary diffusion results
[3] = release of LNG from PHEMA hydrogel matrix into purified water (HPLC-UV); format: physicochemical

SMILES | diffusion (rate) from the hydrogel matrix, LNG versus EST (in words) [1] | effect of including MMA in the hydrogel composition on LNG diffusion (in words) [2] | initial burst, share of total LNG content released ([3]; PHEMA hydrogel (0.1 wt % EGDMA), LNG dissolved directly in matrix, first 24 hrs, purified water 37° C.) [wt %] | release of LNG from the PHEMA-hydrogel matrix (in words) ([3]; PHEMA hydrogel, LNG directly in matrix) | total LNG content released ([3]; PHEMA hydrogel, LNG directly in matrix, after 20 days of incubation) [wt %] | burst release, share of LNG content released ([1]; LNG (20 wt % loading) in PCL MW 50,000 microspheres in PHEMA hydrogel, after 24 hrs, purified water 37° C.) [wt %] | LNG content released ([1]; LNG in PCL microspheres embedded in PHEMA hydrogel, after 20 days of incubation) [wt %]
C[C@]12CC[C@@H]3c4ccc(O)cc4CC[C@H]3[C@@H]1CC[C@@H]2O [EST, estradiol] | faster as compared to that one of LNG |  |  |  |  |  | 
C#C[C@]1(O)CC[C@H]2[C@@H]3CCC4=CC(=O)CC[C@@H]4[C@H]3CC[C@@]21CC [LNG, levonorgestrel] | higher than that one of EST | retardation of LNG diffusion | 20 | very fast | 90 | 10 | 35
